The reference is the same well before dosing, and untreated signal decays as well.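 Labels refer to human fibroblasts, largely primary: uterine (C12385, HUF), lung (H6013), bone (Hs27A), adrenal (HADF), skin (WS1), plus mammary HMF and breast cancer-associated Hs343T. Cancer lines are basal-like or mesenchymal-like triple-negative breast cancer. The paper counts as hits responses shifting over 3x the replicate standard deviation. The tissue of the other fibroblasts is not given here.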 Numbered stars: 1 amine (or outer) side, 2 acyl side, 3 side chain; on linkers, the order of the positions; unused ones are H or OH. Bridge positions count the residues as written; N and C are the ends. Square brackets hold non-standard residues; d marks the D form. Peptide text beside a SMILES is read from it. I, II: the chains in the order shown. Actinocin(9to1) = Cc1c2oc3c(C)ccc(C(=O)[*:1])c3nc-2c(C(=O)[*:2])c(N)c1=O; NMeV = CN[C@H](C(=O)O)C(C)C; Sar = CNCC(=O)O
System: MDAMB231
Assay: relative JC-1 red fluorescence (viability) vs pre-drug, coculture with fibroblast (fraction); higher = more viable cancer cells
Procedure: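 JC-1 labelled TNBC cells cocultured 1:1 (1,500 cells each) with CellTrace Violet stained primary or stromal fibroblasts in 384-well plates in FluoroBrite medium, treated with one of 42 anticancer drugs at 0.1, 1, 10 or 100 uM. JC-1 red fluorescence (mitochondrial integrity in cancer cells only) was read by plate reader every 8 h for 72 h. Values are normalised to each well's pre-drug value. The stock of one drug was tenfold lower, so its dose labels may be too high.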

Cc1c2oc3c(C)ccc(C(=O)N[C@@H]4C(=O)N[C@H](C(C)C)C(=O)N5CCC[C@H]5C(=O)N(C)CC(=O)N(C)[C@@H](C(C)C)C(=O)O[C@@H]4C)c3nc-2c(C(=O)N[C@@H]2C(=O)N[C@H](C(C)C)C(=O)N3CCC[C@H]3C(=O)N(C)CC(=O)N(C)[C@@H](C(C)C)C(=O)O[C@@H]2C)c(N)c1=O [Dactinomycin] (I: T[dV]P[Sar][NMeV] / II: T[dV]P[Sar][NMeV]; ester I:1-I:C, II:1-II:C; linker I:N-II:N via Actinocin(9to1))
relative JC-1 red fluorescence
Details	8 h	16 h	24 h	32 h	40 h	48 h	56 h	64 h	72 h
0.1 µM, coculture fibroblast: C12385	0.7869	0.71931	0.795	0.698	0.656	0.649	0.637	0.678	0.69
0.1 µM, coculture fibroblast: H6013	0.858	0.82	0.7863	0.769	0.7302	0.7242	0.7154	0.6997	0.6634
0.1 µM, coculture fibroblast: H6019	0.828	0.754	0.805	0.752	0.738	0.76	0.751	0.785	0.778
0.1 µM, coculture fibroblast: H6076	0.828	0.7828	0.781	0.782	0.774	0.769	0.787	0.791	0.798
0.1 µM, coculture fibroblast: H6231	0.851	0.772	0.724	0.671	0.627	0.604	0.573	0.5636	0.5527
0.1 µM, coculture fibroblast: HADF	0.828	0.7963	0.762	0.741	0.709	0.691	0.674	0.664	0.624
0.1 µM, coculture fibroblast: HCFa	0.862	0.8159	0.772	0.744	0.708	0.689	0.674	0.659	0.627
0.1 µM, coculture fibroblast: HCPF	0.8976	0.818	0.769	0.746	0.697	0.662	0.635	0.614	0.598
0.1 µM, coculture fibroblast: HHSteC	0.868	0.848	0.824	0.793	0.77	0.755	0.733	0.734	0.713
0.1 µM, coculture fibroblast: HMF	0.849	0.78	0.738	0.709	0.677	0.644	0.6151	0.6126	0.603
0.1 µM, coculture fibroblast: HPFa	0.9036	0.889	0.848	0.815	0.8	0.78	0.731	0.718	0.697
0.1 µM, coculture fibroblast: HUF	0.807	0.716	0.76	0.642	0.618	0.633	0.626	0.675	0.678
0.1 µM, coculture fibroblast: Hs5	0.8329	0.788	0.778	0.7518	0.746	0.715	0.715	0.71	0.712
0.1 µM, coculture fibroblast: Hs27A	0.8544	0.8257	0.808	0.798	0.762	0.763	0.747	0.7425	0.706
0.1 µM, coculture fibroblast: Hs343T	0.817	0.728	0.677	0.651	0.617	0.583	0.5516	0.546	0.541
0.1 µM, coculture fibroblast: WS1	0.737	0.664	0.714	0.608	0.573	0.581	0.562	0.606	0.609
1 µM, coculture fibroblast: C12385	0.733	0.7099	0.682	0.664	0.601	0.577	0.546	0.549	0.521
1 µM, coculture fibroblast: H6013	0.8661	0.822	0.7907	0.758	0.7166	0.685	0.656	0.622	0.568
1 µM, coculture fibroblast: H6019	0.762	0.6763	0.675	0.63	0.605	0.602	0.58	0.603	0.59
1 µM, coculture fibroblast: H6076	0.846	0.7911	0.7509	0.7343	0.6966	0.6683	0.658	0.653	0.649
1 µM, coculture fibroblast: H6231	0.896	0.815	0.781	0.754	0.727	0.707	0.679	0.671	0.65
1 µM, coculture fibroblast: HADF	0.8561	0.8379	0.817	0.79034	0.752	0.6974	0.6699	0.634	0.5672
1 µM, coculture fibroblast: HCFa	0.867	0.826	0.807	0.787	0.766	0.74	0.711	0.679	0.633
1 µM, coculture fibroblast: HCPF	0.887	0.82113	0.7774	0.7582	0.722	0.686	0.6538	0.628	0.63
1 µM, coculture fibroblast: HHSteC	0.8969	0.88	0.846	0.83	0.793	0.767	0.715	0.693	0.652
1 µM, coculture fibroblast: HMF	0.83619	0.796	0.762	0.74	0.738	0.727	0.712	0.713	0.716
1 µM, coculture fibroblast: HPFa	0.919	0.886	0.841	0.796	0.782	0.752	0.686	0.652	0.613
1 µM, coculture fibroblast: HUF	0.829	0.7301	0.738	0.652	0.611	0.611	0.577	0.572	0.572
1 µM, coculture fibroblast: Hs5	0.736	0.846	0.845	0.821	0.786	0.746	0.712	0.686	0.6665
1 µM, coculture fibroblast: Hs27A	0.8618	0.814	0.786	0.779	0.715	0.6427	0.6096	0.592	0.546
1 µM, coculture fibroblast: Hs343T	0.827	0.767	0.733	0.711	0.679	0.653	0.613	0.593	0.566
1 µM, coculture fibroblast: WS1	0.744	0.713	0.69	0.678	0.652	0.63	0.596	0.595	0.587
10 µM, coculture fibroblast: C12385	0.78	0.727	0.688	0.623	0.564	0.551	0.536	0.566	0.559
10 µM, coculture fibroblast: H6013	0.924	0.837	0.743	0.675	0.613	0.602	0.573	0.549	0.514
10 µM, coculture fibroblast: H6019	0.781	0.644	0.614	0.545	0.523	0.513	0.495	0.493	0.475
10 µM, coculture fibroblast: H6076	0.883	0.768	0.661	0.607	0.567	0.539	0.525	0.513	0.518
10 µM, coculture fibroblast: H6231	0.874	0.821	0.782	0.737	0.692	0.667	0.64	0.637	0.627
10 µM, coculture fibroblast: HADF	0.9114	0.88	0.815	0.747	0.702	0.663	0.629	0.61	0.561
10 µM, coculture fibroblast: HCFa	0.9046	0.8415	0.777	0.702	0.649	0.61	0.579	0.546	0.511
10 µM, coculture fibroblast: HCPF	0.935	0.8696	0.801	0.761	0.718	0.674	0.635	0.616	0.596
10 µM, coculture fibroblast: HHSteC	0.9242	0.9078	0.844	0.787	0.741	0.71	0.656	0.633	0.599
10 µM, coculture fibroblast: HMF	0.916	0.859	0.791	0.747	0.691	0.655	0.61	0.583	0.578
10 µM, coculture fibroblast: HPFa	0.937	0.9	0.8215	0.753	0.723	0.698	0.659	0.641	0.606
10 µM, coculture fibroblast: HUF	0.853	0.7602	0.74	0.636	0.581	0.569	0.535	0.539	0.529
10 µM, coculture fibroblast: Hs5	0.906	0.867	0.833	0.779	0.747	0.704	0.698	0.677	0.66
10 µM, coculture fibroblast: Hs27A	0.9225	0.883	0.817	0.763	0.709	0.685	0.668	0.657	0.615
10 µM, coculture fibroblast: Hs343T	0.912	0.806	0.7149	0.659	0.585	0.555	0.521	0.507	0.495
10 µM, coculture fibroblast: WS1	0.78	0.725	0.669	0.603	0.57	0.556	0.527	0.527	0.52
100 µM, coculture fibroblast: C12385	0.698	0.677	0.561	0.543	0.465	0.457	0.427	0.405	0.374
100 µM, coculture fibroblast: H6013	0.8802	0.8042	0.7289	0.658	0.588	0.561	0.515	0.483	0.441
100 µM, coculture fibroblast: H6019	0.759	0.643	0.54	0.47	0.412	0.392	0.37	0.371	0.348
100 µM, coculture fibroblast: H6076	0.835	0.7392	0.656	0.623	0.585	0.557	0.529	0.525	0.507
100 µM, coculture fibroblast: H6231	0.891	0.835	0.797	0.776	0.759	0.722	0.674	0.654	0.626
100 µM, coculture fibroblast: HADF	0.8558	0.805	0.744	0.671	0.598	0.561	0.519	0.505	0.457
100 µM, coculture fibroblast: HCFa	0.8871	0.843	0.801	0.725	0.649	0.611	0.573	0.547	0.517
100 µM, coculture fibroblast: HCPF	0.8478	0.79	0.737	0.695	0.644	0.617	0.587	0.574	0.564
100 µM, coculture fibroblast: HHSteC	0.882	0.848	0.803	0.737	0.679	0.647	0.589	0.559	0.501
100 µM, coculture fibroblast: HMF	0.866	0.8158	0.7461	0.69	0.631	0.587	0.565	0.564	0.559
100 µM, coculture fibroblast: HPFa	0.9121	0.8863	0.806	0.715	0.673	0.641	0.58	0.562	0.515
100 µM, coculture fibroblast: HUF	0.843	0.78	0.803	0.679	0.621	0.616	0.577	0.577	0.57
100 µM, coculture fibroblast: Hs5	0.878	0.816	0.736	0.69	0.641	0.582	0.541	0.52	0.503
100 µM, coculture fibroblast: Hs27A	0.87	0.8047	0.7444	0.688	0.595	0.565	0.536	0.524	0.48
100 µM, coculture fibroblast: Hs343T	0.863	0.796	0.721	0.6693	0.6073	0.567	0.529	0.521	0.515
100 µM, coculture fibroblast: WS1	0.7216	0.6616	0.599	0.552	0.506	0.492	0.465	0.452	0.426
